Results taken from patent US20130028838A1, “F18-TYROSINE DERIVATIVES FOR IMAGING BONE METASTASES” (PIRAMAL IMAGING SA, priority 2010, published 2013).
At least one compound was matched to its structure with a doubt left.

Tested on: 786-O bone metastases
Test: PET/CT imaging in 786-O/luc bone metastasis mouse model
Conditions: day 65 after inoculation, 60 min after i.v. injection
Procedure: 786-O/luc cells and the MDA-MB231SA/luc cells were harvested from subconfluent cell culture flasks and resuspended in PBS (Biochrom AG) to a final concentration of 5×10^5 cells/100 μl. For intracardiac inoculations, 5-week-old female athymic nude mice (Harlan-Winkelmann GmbH, Borchen, Germany) were anesthetized with an intraperitoneal injection of 5% Rompun (Bayer HealthCare AG, Leverkusen, Germany)/10% Ketavet (Pfizer, Karlsruhe, Germany) in 0.9% NaCl at a dose of 0.1 ml/10 g body weight. Using an insulin syringe (BD Micro-Fine+Demi U-100, Becton Dickinson GmbH, Heidelberg, Germany), 5×10^5 786-O/luc cells in 100 μl PBS were inoculated into the left cardiac ventricle (i.c.) of anesthetized mice. Experiments were approved by the governmental review committee on animal care.
10 to 12 MBq [F-18]-fluoride or [F-18]-D-FMT were injected i.v. into the tail vein. 60 min after injection anesthesia was induced by isoflurane/O2 and twenty-minute micro-PET/computed tomography (CT) scans were obtained using an Inveon micro PET/CT scanner (Siemens).
51 days after the inoculation of the 786-O/luc cells into the mice, PET/CT imaging was performed with [F-18]-fluoride (FIG. 1 right side). […] The same mouse was imaged 2 weeks later (day 65) with [F-18]-D-FMT (FIG. 1 left side).

Compound: N[C@H](Cc1ccc(OC[18F])cc1)C(=O)O [[F-18]-D-FMT, (R)-2-amino-3-(4[F-18]fluoromethoxy-phenyl)-propionic acid]
- % ID/g values based on the SUV for the various lesions: 4.1 and 6.8
